In article PMC7520452 one finds binding data, which are given here for one molecule.

Chains of the proteins cited; added tags and fusions are not shown.
UniProt P30260: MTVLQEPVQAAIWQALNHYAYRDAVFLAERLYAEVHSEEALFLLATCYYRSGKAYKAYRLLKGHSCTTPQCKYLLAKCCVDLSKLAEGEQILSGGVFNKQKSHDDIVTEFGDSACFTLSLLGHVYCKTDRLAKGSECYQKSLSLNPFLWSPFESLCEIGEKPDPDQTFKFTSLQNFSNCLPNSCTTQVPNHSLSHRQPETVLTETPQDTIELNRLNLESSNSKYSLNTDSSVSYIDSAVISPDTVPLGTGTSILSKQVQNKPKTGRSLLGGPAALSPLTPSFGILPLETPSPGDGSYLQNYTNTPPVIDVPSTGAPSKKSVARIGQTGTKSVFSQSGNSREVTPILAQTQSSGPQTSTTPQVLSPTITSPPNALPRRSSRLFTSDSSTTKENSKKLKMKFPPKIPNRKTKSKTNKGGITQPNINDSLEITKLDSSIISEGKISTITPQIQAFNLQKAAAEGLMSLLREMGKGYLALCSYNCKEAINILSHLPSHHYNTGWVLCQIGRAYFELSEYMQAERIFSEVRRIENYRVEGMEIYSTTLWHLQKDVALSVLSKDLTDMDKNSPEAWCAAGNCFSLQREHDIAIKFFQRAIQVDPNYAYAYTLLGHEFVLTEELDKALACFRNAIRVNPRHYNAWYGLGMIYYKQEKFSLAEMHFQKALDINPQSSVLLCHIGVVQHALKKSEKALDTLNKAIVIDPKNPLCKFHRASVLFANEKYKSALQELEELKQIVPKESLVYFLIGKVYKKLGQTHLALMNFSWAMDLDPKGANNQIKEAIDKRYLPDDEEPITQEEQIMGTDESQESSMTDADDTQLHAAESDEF
UniProt Q9UM11: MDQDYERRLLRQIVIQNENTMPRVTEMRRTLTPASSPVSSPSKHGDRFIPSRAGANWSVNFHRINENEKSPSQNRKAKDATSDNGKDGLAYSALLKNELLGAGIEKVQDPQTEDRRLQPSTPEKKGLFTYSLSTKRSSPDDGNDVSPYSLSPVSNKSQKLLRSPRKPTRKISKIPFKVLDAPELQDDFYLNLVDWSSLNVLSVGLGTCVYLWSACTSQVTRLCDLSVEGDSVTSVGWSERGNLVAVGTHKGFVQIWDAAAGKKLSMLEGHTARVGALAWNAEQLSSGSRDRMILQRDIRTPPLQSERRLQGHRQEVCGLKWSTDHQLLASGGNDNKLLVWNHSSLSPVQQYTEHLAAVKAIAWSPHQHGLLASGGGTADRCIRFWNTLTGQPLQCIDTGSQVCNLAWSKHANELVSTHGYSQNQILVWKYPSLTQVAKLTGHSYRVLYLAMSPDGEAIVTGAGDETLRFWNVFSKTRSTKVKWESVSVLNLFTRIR
UniProt Q93034: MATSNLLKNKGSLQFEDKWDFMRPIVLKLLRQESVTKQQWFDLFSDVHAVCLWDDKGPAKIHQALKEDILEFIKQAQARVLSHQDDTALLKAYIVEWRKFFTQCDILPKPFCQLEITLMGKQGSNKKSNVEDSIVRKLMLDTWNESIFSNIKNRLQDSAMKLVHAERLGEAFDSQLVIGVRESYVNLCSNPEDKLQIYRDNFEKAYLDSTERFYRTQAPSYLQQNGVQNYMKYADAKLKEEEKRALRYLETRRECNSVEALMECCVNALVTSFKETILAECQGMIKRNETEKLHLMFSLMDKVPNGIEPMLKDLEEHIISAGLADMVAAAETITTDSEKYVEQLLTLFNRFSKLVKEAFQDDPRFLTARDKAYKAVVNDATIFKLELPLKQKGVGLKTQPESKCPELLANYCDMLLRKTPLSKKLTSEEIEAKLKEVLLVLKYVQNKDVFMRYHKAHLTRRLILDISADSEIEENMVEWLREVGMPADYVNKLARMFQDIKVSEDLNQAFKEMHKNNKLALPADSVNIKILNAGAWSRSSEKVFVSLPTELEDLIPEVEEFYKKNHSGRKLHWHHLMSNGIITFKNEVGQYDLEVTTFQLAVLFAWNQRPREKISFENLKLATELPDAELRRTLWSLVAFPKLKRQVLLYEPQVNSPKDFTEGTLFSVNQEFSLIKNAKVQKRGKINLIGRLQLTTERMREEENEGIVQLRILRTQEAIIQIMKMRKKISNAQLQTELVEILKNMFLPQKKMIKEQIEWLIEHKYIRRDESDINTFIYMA
UniProt Q13617: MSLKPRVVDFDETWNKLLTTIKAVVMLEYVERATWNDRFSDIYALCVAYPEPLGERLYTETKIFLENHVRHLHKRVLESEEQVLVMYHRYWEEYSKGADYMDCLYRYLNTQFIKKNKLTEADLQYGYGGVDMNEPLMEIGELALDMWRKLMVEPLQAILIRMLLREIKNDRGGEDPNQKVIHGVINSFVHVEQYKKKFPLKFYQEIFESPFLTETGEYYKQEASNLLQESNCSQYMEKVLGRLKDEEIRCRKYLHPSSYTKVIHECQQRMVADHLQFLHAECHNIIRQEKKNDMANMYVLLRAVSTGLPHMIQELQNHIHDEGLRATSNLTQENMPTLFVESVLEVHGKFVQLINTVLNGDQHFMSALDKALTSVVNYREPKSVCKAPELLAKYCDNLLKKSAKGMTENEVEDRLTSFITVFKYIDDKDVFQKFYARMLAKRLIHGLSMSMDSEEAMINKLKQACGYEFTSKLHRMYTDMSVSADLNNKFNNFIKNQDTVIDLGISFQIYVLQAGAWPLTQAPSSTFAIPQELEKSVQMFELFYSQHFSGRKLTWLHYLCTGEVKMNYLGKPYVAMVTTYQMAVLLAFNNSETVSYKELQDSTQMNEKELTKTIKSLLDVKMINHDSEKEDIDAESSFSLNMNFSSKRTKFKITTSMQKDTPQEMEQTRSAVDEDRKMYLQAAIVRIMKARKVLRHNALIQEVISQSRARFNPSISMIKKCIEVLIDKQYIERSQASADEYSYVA
UniProt Q12834: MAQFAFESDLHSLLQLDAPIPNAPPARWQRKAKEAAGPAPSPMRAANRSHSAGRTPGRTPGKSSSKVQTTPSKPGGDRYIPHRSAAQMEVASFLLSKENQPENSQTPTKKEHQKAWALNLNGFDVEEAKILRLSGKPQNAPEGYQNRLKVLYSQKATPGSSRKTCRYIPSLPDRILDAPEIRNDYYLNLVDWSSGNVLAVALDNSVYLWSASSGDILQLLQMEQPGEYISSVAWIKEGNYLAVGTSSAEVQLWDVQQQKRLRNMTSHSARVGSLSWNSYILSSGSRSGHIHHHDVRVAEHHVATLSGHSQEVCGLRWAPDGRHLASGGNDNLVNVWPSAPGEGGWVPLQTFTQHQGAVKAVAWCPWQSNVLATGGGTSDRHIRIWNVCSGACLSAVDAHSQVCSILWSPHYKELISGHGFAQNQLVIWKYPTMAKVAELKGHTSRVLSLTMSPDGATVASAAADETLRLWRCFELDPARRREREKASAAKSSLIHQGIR
UniProt Q13616: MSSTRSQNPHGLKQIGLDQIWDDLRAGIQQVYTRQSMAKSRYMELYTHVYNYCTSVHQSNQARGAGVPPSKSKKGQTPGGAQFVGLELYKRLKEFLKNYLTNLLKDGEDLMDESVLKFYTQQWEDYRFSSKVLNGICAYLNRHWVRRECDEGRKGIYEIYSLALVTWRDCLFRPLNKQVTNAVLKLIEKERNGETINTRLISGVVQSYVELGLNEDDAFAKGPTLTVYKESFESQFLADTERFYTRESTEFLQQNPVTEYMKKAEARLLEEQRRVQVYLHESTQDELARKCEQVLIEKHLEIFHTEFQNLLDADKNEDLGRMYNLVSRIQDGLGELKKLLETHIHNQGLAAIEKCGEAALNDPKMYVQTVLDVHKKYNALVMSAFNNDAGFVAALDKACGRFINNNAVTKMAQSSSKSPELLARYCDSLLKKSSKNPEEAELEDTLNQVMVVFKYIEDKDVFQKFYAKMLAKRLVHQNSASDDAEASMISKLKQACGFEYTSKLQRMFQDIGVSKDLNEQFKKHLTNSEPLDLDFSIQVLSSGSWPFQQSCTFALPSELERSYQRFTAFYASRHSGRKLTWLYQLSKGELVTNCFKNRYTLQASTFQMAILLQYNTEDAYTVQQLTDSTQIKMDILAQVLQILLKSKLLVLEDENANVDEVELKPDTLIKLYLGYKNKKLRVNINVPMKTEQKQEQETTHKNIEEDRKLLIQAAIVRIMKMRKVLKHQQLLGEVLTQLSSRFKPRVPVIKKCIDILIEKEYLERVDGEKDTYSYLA

These are yes or no findings as the source states them, for the method shown. Binding seen in cells or lysates may run through a third protein. Some entries that bind do so weakly or less than the wild type. Where a sequence is shown, tags or fusion partners need not be part of it.

The target of one assay is Cdc27 (UniProt P30260). Briefly: co-IP; borealin with Cdc27 (Fig. 2A; Fig. S1A); which protein was precipitated is not told.
A further assay concerns the target HA-tagged Cdh1 (UniProt Q9UM11). Nature of the assay: co-IP; 293T cells co-transfected with FLAG–Borealin and HA- or Myc-tagged partner, 10 µM MG132 for 5 h; extracts immunoprecipitated with polyclonal antibody against HA or Myc, immunoblotting. A general note: Immunoblotting shows a protein as a band on a membrane.
A further assay deals with Myc–CUL5 (UniProt Q93034). The description is as above.
A further assay has as its target Myc–CUL2 (UniProt Q13617). The assay is described as above.
In the next assay the target is HA-tagged Cdc20 (UniProt Q12834). The description is as above.
The target in another assay is Myc–CUL3 (UniProt Q13618). Described as above.
The target in a further assay is Myc–CUL1 (UniProt Q13616). Described as above.

B1: FLAG-tagged wild-type (WT) borealin (protein, UniProt Q53HL2 1-280)
chain: MAPRKGSSRVAKTNSLRRRKLASFLKDFDREVEIRIKQIESDRQNLLKEVDNLYNIEILRLPKALREMNWLDYFALGGNKQALEEAATADLDITEINKLTAEAIQTPLKSAKTRKVIQVDEMIVEEEEEEENERKNLQTARVKRCPPSKKRTQSIQGKGKGKRSSRANTVTPAVGRLEVSMVKPTPGLTPRFDSRVFKTPGLRTPAAGERIYNISGNGSPLADSKEIFLTVPVGGGESLRLLASDLQRHSIAQLDPEALGNIKKLSNRLAQICSSIRTHK
As to B1, the binding result in the assay with Cdc27 was “binds”; with HA-tagged Cdh1, “binds”; in the assay with Myc–CUL5, “no binding”; in the assay with Myc–CUL2, “no binding”; with HA-tagged Cdc20 it was “no binding”; with Myc–CUL3, “no binding”. Also, the binding entry with Myc–CUL1 is on record as “no binding”.
